For at least one compound, name, drawing or mass did not settle the structure.
Tested on: HFL-1 cells
Test: Radioprotective effects on cultured normal cells (colony formation after irradiation)
Format: cell-based, human
Settings: HFL-1 normal diploid lung fibroblasts; 2.5 to 20 micromolar for 24 hrs before 10 Gy or 15 Gy IR; colonies counted after 3 weeks
Description: HFL-1 cells, which are normal diploid lung fibroblasts, were plated into 24 well dishes at a cell density of 3000 cells per 10 mm^2 in DMEM completed with 10% fetal bovine serum and antibiotics. The test compounds listed in Table 16 were added to the cells 24 hours later in select concentrations from 2.5 to 20 micromolar, inclusive, using DMSO as a solvent. Control cells were treated with DMSO alone. The cells were exposed to the test compound or DMSO for 24 hrs. The cells were then irradiated with either 10 Gy (gray) or 15 Gy of ionizing radiation (IR) using a J. L. Shepherd Mark I, Model 30-1 Irradiator equipped with ^137cesium as a source.
After irradiation, the medium on the test and control cells was removed and replaced with fresh growth medium without the test compounds or DMSO. […] The number of colonies from each 100 mm^2 culture dish, which represents the number of surviving cells, was determined by staining the dishes as described below.
To visualize and count the colonies derived from the clonal outgrowth of individual radioprotected cells, the medium was removed and the plates were washed one time with room temperature phosphate buffered saline. […] The plates were air dried, the number of colonies from each plate were counted and the average from duplicate plates was determined. […]

COc1ccccc1/C=C/S(=O)(=O)Cc1ccc([N+](=O)[O-])cc1 [Compound 3, (E)-2-Methoxystyryl-4-nitrobenzylsulfone]
Activity (radioprotective activity, fold protection: colonies test/control): −

From US6667346B2, “Method for protecting cells and tissues from ionizing radiation toxicity with α, β unsaturated aryl sulfones” (Temple University - Of The Commonwealth System of Higher …, priority 2001, dated 2003)
